From the supplement of paper PMC12873370
Values joined by “and” are separate entries in the source; they are usually repeats but may differ in a detail not shown here. Equal values may be shown once. The list shows a part of the results. Many values rest on one well or one pass, so single values are uncertain.

These compounds were tested on PREPP (mouse prostate epithelium Trp53/Pten KO) (assay: cell viability relative to untreated (fraction); higher = less growth inhibition). Conditions: 5 µM; 3 days.
For `Cn1nnc(-c2ccc(-c3ccc(N4C[C@H](CO)OC4=O)cc3F)cn2)n1`, the cell viability was 1.06 and 0.972.
With `O=C1C[C@@H](c2ccc(O)c(O)c2)Oc2cc(O)cc(O)c21` the cell viability was 0.907.
`CC(=O)OCC(=O)[C@@]1(O)CC[C@H]2[C@@H]3CCC4=CC(=O)CC[C@]4(C)[C@H]3C(=O)C[C@@]21C` gave a cell viability of 0.909.
`O=C(O)C1=C[C@@H](O)[C@@H](O)[C@H](O)C1` showed a cell viability of 1.34.
Work on `O=C(O)CNC(=O)c1ccccc1` yielded a cell viability of 1.01.
With `c1ccc(CNc2ncnc3[nH]cnc23)cc1` the cell viability was 0.566.
For `COC(=O)N/N=C/c1c[n+]([O-])c2ccccc2[n+]1[O-]`, the cell viability was 0.958.
`CC(=O)OCC(=O)[C@@]1(O)[C@H](C)C[C@H]2[C@@H]3CCC4=CC(=O)C=C[C@]4(C)[C@@]3(F)[C@@H](O)C[C@@]21C` was tested, and the cell viability was 0.836.
`COc1ccc(C=CC(=O)O)cc1O` showed a cell viability of 0.921.
`CN(C(=O)c1c(O)c2ccccc2n(C)c1=O)c1ccccc1` was tested, and the cell viability was 0.87.
`C[C@H]1[C@H](C)CC[C@]2(C(=O)O[C@@H]3O[C@H](CO[C@@H]4O[C@H](CO)[C@@H](O[C@@H]5O[C@@H](C)[C@H](O)[C@@H](O)[C@H]5O)[C@H](O)[C@H]4O)[C@@H](O)[C@H](O)[C@H]3O)CC[C@]3(C)C(=CC[C@@H]4[C@@]5(C)C[C@@H](O)[C@H](O)[C@@](C)(CO)[C@@H]5[C@H](O)C[C@]43C)[C@H]12` showed a cell viability of 0.948.
`COc1c(O)cc(O)c2c(=O)cc(-c3ccccc3)oc12` was tested, and the cell viability was 0.796.
For `Nc1nc(=O)c2nc(CNc3ccc(C(=O)N[C@@H](CCC(=O)O)C(=O)O)cc3)cnc2[nH]1`, the cell viability was 0.991.
Compound `CO[C@@H]1[C@@H](OC(N)=O)[C@@H](O)[C@H](Oc2ccc3c(O)c(NC(=O)c4ccc(O)c(CC=C(C)C)c4)c(=O)oc3c2C)OC1(C)C` has a cell viability of 0.722.
`NC(=O)NCCC[C@H](N)C(=O)O` showed a cell viability of 0.87.
With `COc1ccc2c(C)cc(=O)oc2c1` the cell viability was 1.04.
With `NCCCC(N)C(=O)O` (centres undefined) the cell viability was 0.937.
`CC[C@H]1OC(=O)C[C@@H](O)[C@H](C)[C@@H](O[C@@H]2O[C@H](C)[C@@H](O[C@H]3C[C@@](C)(O)[C@@H](O)[C@H](C)O3)[C@H](N(C)C)[C@H]2O)[C@@H](CC=O)C[C@@H](C)C(=O)/C=C/C(C)=C/[C@@H]1CO[C@@H]1O[C@H](C)[C@@H](O)[C@@H](OC)[C@H]1OC` gave a cell viability of 0.919.
Work on `Cn1cnc2c1c(=O)[nH]c(=O)n2C` yielded a cell viability of 1.06.
In the case of `N[C@@H](COP(=O)(O)O)C(=O)O`, the cell viability is reported as 0.906.
Compound `NC(=O)CC[C@H](NC(=O)Cc1ccccc1)C(=O)O` has a cell viability of 0.958.
With `CCCCCCCCCCCCCCCCCCCC(=O)O` the cell viability was 0.722.
With `C[C@]12CC[C@@H]3c4ccc(O)cc4CC[C@H]3[C@@H]1CC[C@@H]2O` the cell viability was 0.843 and 0.892.
In the case of `COc1cc(O)ccc1/C=C/C(=O)c1ccc(O)cc1`, the cell viability is reported as 0.752.
`Oc1cc(O)cc(/C=C/c2ccc(O)c(O)c2)c1` was tested, and the cell viability was 0.937.
Work on `O=C(O)CCC(=O)O` yielded a cell viability of 0.752.
`O=c1ccc2ccc(O)cc2o1` was tested, and the cell viability was 0.93.
`O=C(CCc1ccc(O)cc1)c1c(O)cc(O)cc1O` was tested, and the cell viability was 0.849.
With `CCOC(N)=O` the cell viability was 1.
For `Oc1cc(O)c2c(c1)O[C@H](c1cc(O)c(O)c(O)c1)[C@H](O)C2`, the cell viability was 1.31.
`Oc1cc(O)c2cc(O)c(-c3ccc(O)c(O)c3)[o+]c2c1` gave a cell viability of 1.19.
Work on `CN1CCc2cc3c(cc2C(=O)Cc2cc4c(cc2C1)OCO4)OCO3` yielded a cell viability of 0.836.
Work on `Cc1c[nH]c2ccccc12` yielded a cell viability of 0.993.
`C[C@@H]1C/C=C/C=C/C=C/C=C/[C@H](O[C@@H]2O[C@H](C)[C@@H](O)[C@H](N)[C@@H]2O)C[C@@H]2O[C@](O)(C[C@@H](O)C[C@H]3O[C@@H]3/C=C/C(=O)O1)C[C@H](O)[C@H]2C(=O)O` gave a cell viability of 0.933.
In the case of `C=CCSCC=C`, the cell viability is reported as 0.878.
Compound `NC(N)=NCC(=O)O` has a cell viability of 1.02.
With `CC(C)=CCOc1ccc(/C=C/C(=O)c2ccc(OCC=C(C)C)cc2OCC(=O)O)cc1` the cell viability was 0.902.
`OCc1c[nH]c2ccccc12` gave a cell viability of 0.871.
Compound `Nc1ccc(C(=O)O)cc1` has a cell viability of 0.971.
